From patent publication US9890175B2, “Taxane compound, and preparation method and use thereof” (JIANGSU TASLY DIYI PHARMACEUTICAL CO., LTD., priority 2013, dated 2018)

Test: Caco-2 cell monolayer membrane transport assay (Papp and recovery)
Assay type: in vitro ADME
Conditions: human; for Papp A→B: Caco-2, Papp A-B; for Papp B→A: Caco-2, Papp B-A

Papp A→B (Mean): 0.87 ×10⁻⁶ cm/s
Papp A→B (Sample-01): 1.07 ×10⁻⁶ cm/s
Papp A→B (Sample-02): 0.67 ×10⁻⁶ cm/s
Papp B→A (Mean): 0.53 ×10⁻⁶ cm/s
Papp B→A (Sample-01): 0.5 ×10⁻⁶ cm/s
Papp B→A (Sample-02): 0.55 ×10⁻⁶ cm/s
Structure (SMILES): CC(C)NCC(O)COc1ccc(CC(N)=O)cc1 (stereo not drawn) [Atenolol, reference compound]
